Structures are written as SMILES. Records with an inconclusive call do not appear.

This test deals with BDF1 mice, colon carcinoma 38 sc, T/C %. Briefly: NCI In Vivo Anticancer Drug Screen. Data for tumor model Colon Carcinoma 38 (subcutaneous) in B6D2F1 (BDF1) mice. The settings on record: endpoint: median tumor weight (est.), schedule: Q07DX003 (ip), vehicle: saline, higher = larger tumour. Here is the method:
The antitumor activity of compounds was measured in mice bearing transplantable tumors. Survival or tumor size were measured and the results are expressed as the measurement made in the treated group (T) divided by the measurement made in the vehicle treated control group (C). The tumor model used in this assay is Colon Carcinoma 38 (subcutaneous) in B6D2F1 (BDF1) mice

For the compound `COc1cc2c(c(OC)c1OC)-c1ccc(OC)c(=O)cc1[C@@H](N)CC2`, the T/C was 102 % of control (dose: 2.5 mg/kg/injection); 112 % of control (dose: 5.0 mg/kg/injection); 56 % of control (dose: 10.0 mg/kg/injection); 22 % of control (dose: 20.0 mg/kg/injection); 17 % of control (dose: 40.0 mg/kg/injection); 17 % of control (dose: 80.0 mg/kg/injection).

The values above are taken from PubChem BioAssay AID212 (DTP/NCI, 2004).
